The test addresses ClSca (Cellulosilyticum lentocellum DSM 5427). Briefly: pull-down.

These are yes or no findings as the source states them, for the method shown. In cells and extracts the contact can be indirect. Binding can be weak; no strength is given.

B1: Clole_0709 (enzyme, UniProt F2JNU4 1-1051)
chain: MNKRYKKIMVSLMATSMVLNLGVSMPIIAGPVEPPFNYAEAFQKSMYFYDANKCGPGVGEGELTWRGDCHTEDKFVPLVPKDDVTGMGTNLSASFIKQNKETLDPDGDGTVDLSGGFHDAGDHVKFGLPQSYSGSTLGWGYYEFKESYVAIGEKEHIESILRGFNDYFMRCTFKNSEGEVVAFAYQVGDGTTDHNYWGPPELQKTARPAFFASAQTPASDQCAGAAASLAINYLNFKDSDPAYAEKSLETAEALYEFAKENRGLGFSGGFYNSSYDEDEMSWAAVWLSIATGDKSYLTDITAVDANGAYTGYMSRIISTTSSTWQNIWVHSWDTVWGGVFAKLAPLTNNPEHWYFFRWNIEYWSGVPHENPNDTTYMASTPAGYKVVSTWGSARYETTAQLCALVYNKYKANSDFTKWCKSQMDYLLGDNPMNRCYEVGYSDISAIYPHHRAAHGSLTNSMLEPAVERHTLWGALVGGPDGDDYHKDDITDYVYNEVAIDYNAGFVGALAGLYELYGKGQAPLENFPPQEKDERPFYATAKIEQENSERSQITVKIHNDTSCPPSFESGLKARYFFDISEMVEAGQSLKELSVQVMYDQASIVDGVKTNINGPFMWDEEKNIAYIELDWSQNSFHGNREIHFGLVPTQDSQYKVHWDFTNDWSHEGLTKVEALTEYVPIYLNGEKVFGKEPTSYNVSINTPVEGSTISYIEGEKPITLEAIVGAAEESVTSIAYYADGIQIGEVQNAPYTFDYVADNISNVEQRKIAFSAKAHLANGTTITSKPVTITVVYRMPEALVVKLIEPAEGSIVDATKGSVSIPVTAVSENEAVTKIAIYANNEKLGEGSGLTYTTLYNTPSKGGASGNLTVTFKAVATLANGEEKEGKPVTMQIKLPVVISDLEGFSFKMQGSDSITSNTIGRKIIMKNTEGEAVDLAALSVRYYFTKEGNVGQTYFCDHASMTFNKAPWYAALTSDITYKVVNLDTPVNGADTYLELTFEKVGYDLEVGDTLEIEGRLINTNWSNFDQSNDHSYSNGAVVFYNDAVISGTIPQ
On to B1, for which the binding entry is “binds”.

For the origin of these results see doi:10.1101/2023.01.24.524588.
